PubChem BioAssay AID1224828, NIAID, 2016
Assay: 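Knock-downs that increase or decrease LPS-induced p65 nuclear translocation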 (primary screen). Cell system: mouse RAW264.7 G9 macrophage reporter cells (GFP-p65, Tnf promoter-mCherry). Reagents: siRNA pool against mouse genes, 100 nM. Time to read-out: 2 days siRNA transfection, then 40 min LPS before fixation. Conditions: LPS (Salmonella minnesota R595) at 10 ng/ml. Read-out: 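Imaged p65 nuclear translocation ratio, normalised to the plate median, converted to robust z-scores and averaged across two replicates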. Direction: p65 translocation robust z-score: higher = more nuclear NF-kappaB p65 after LPS than the plate median; nuclear/cytoplasmic p65 ratio: higher = more nuclear NF-kappaB p65. Active means: 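Called active when z exceeds 3.3 or falls under -1.56 (median of Tlr4 controls), giving activity score of at least 50; no calls for control wells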. Meaning of the calls: active = hit (p65 shift raised or lowered); inactive = no clear change.
In all, the deposit lists about 17,000 reagents; shown is a part drawn at random. Over the whole deposit, 762 (4.5%) were called active. 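Active calls include both raised and lowered p65 entry, mostly lowered; wells with fewer than 50 cells lack a z-score.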 Raw values vary from plate to plate and are shown uncorrected. Entries without a mark were called inactive. Reagents against one gene are numbered here. Reagent sequences are not shown.

Plppr1
- p65 translocation robust z-score: 0.87
- nuclear/cytoplasmic p65 ratio, rep 1: 1.58
- nuclear/cytoplasmic p65 ratio, rep 2: 1.47
- low cell count flag: enough cells to score

Ppfia2
- p65 translocation robust z-score: -0.05
- nuclear/cytoplasmic p65 ratio, rep 1: 1.53
- nuclear/cytoplasmic p65 ratio, rep 2: 1.32
- low cell count flag: enough cells to score

Slc16a8
- p65 translocation robust z-score: 0.75
- nuclear/cytoplasmic p65 ratio, rep 1: 1.54
- nuclear/cytoplasmic p65 ratio, rep 2: 1.31
- low cell count flag: enough cells to score

Cd1d2
- p65 translocation robust z-score: 0.47
- nuclear/cytoplasmic p65 ratio, rep 1: 1.52
- nuclear/cytoplasmic p65 ratio, rep 2: 1.45
- low cell count flag: enough cells to score

Elk3
- p65 translocation robust z-score: -1.29
- nuclear/cytoplasmic p65 ratio, rep 1: 1.43
- nuclear/cytoplasmic p65 ratio, rep 2: 1.2
- low cell count flag: enough cells to score

Foxk1
- p65 translocation robust z-score: 0.8
- nuclear/cytoplasmic p65 ratio, rep 1: 1.67
- nuclear/cytoplasmic p65 ratio, rep 2: 1.61
- low cell count flag: enough cells to score

Npy
- p65 translocation robust z-score: 3.94 (active)
- nuclear/cytoplasmic p65 ratio, rep 1: 2.56
- nuclear/cytoplasmic p65 ratio, rep 2: 1.66
- low cell count flag: enough cells to score

Il17d
- p65 translocation robust z-score: -1.74 (active)
- nuclear/cytoplasmic p65 ratio, rep 1: 1.26
- nuclear/cytoplasmic p65 ratio, rep 2: 1.24
- low cell count flag: enough cells to score

Echdc2
- nuclear/cytoplasmic p65 ratio, rep 1: 1.37
- nuclear/cytoplasmic p65 ratio, rep 2: 1.74
- low cell count flag: fewer than 50 cells per well; well left out of scoring

Or14j9
- p65 translocation robust z-score: 0.63
- nuclear/cytoplasmic p65 ratio, rep 1: 1.34
- nuclear/cytoplasmic p65 ratio, rep 2: 1.27
- low cell count flag: enough cells to score

Opa1
- p65 translocation robust z-score: 0.03
- nuclear/cytoplasmic p65 ratio, rep 1: 1.45
- nuclear/cytoplasmic p65 ratio, rep 2: 1.42
- low cell count flag: enough cells to score

Laid out differently: 3 of the entries above
gene knocked down,reagent no.,p65 translocation robust z-score,"nuclear/cytoplasmic p65 ratio, rep 1","nuclear/cytoplasmic p65 ratio, rep 2",low cell count flag
Cd1d2,1,0.47,1.52,1.45,enough cells to score
Elk3,1,-1.29,1.43,1.2,enough cells to score
Foxk1,1,0.8,1.67,1.61,enough cells to score

The list goes on.
Zfp598
- p65 translocation robust z-score: 0
- nuclear/cytoplasmic p65 ratio, rep 1: 1.34
- nuclear/cytoplasmic p65 ratio, rep 2: 1.31
- low cell count flag: enough cells to score

Carmil1 #1
- p65 translocation robust z-score: -1.35
- nuclear/cytoplasmic p65 ratio, rep 1: 1.51
- nuclear/cytoplasmic p65 ratio, rep 2: 1.35
- low cell count flag: enough cells to score

Carmil1 #2
- p65 translocation robust z-score: 0.61
- nuclear/cytoplasmic p65 ratio, rep 1: 1.69
- nuclear/cytoplasmic p65 ratio, rep 2: 1.86
- low cell count flag: enough cells to score

Nudt15
- p65 translocation robust z-score: 1.67
- nuclear/cytoplasmic p65 ratio, rep 1: 1.98
- nuclear/cytoplasmic p65 ratio, rep 2: 1.77
- low cell count flag: enough cells to score

Rbbp8
- p65 translocation robust z-score: -0.64
- nuclear/cytoplasmic p65 ratio, rep 1: 1.51
- nuclear/cytoplasmic p65 ratio, rep 2: 1.53
- low cell count flag: enough cells to score

Acot3
- nuclear/cytoplasmic p65 ratio, rep 1: 1.13
- nuclear/cytoplasmic p65 ratio, rep 2: 1.09
- low cell count flag: fewer than 50 cells per well; well left out of scoring

Tab3
- p65 translocation robust z-score: -1.07
- nuclear/cytoplasmic p65 ratio, rep 1: 1.26
- nuclear/cytoplasmic p65 ratio, rep 2: 1.18
- low cell count flag: enough cells to score

Bmp15
- p65 translocation robust z-score: -0.06
- nuclear/cytoplasmic p65 ratio, rep 1: 1.66
- nuclear/cytoplasmic p65 ratio, rep 2: 1.56
- low cell count flag: enough cells to score

H2-Oa
- p65 translocation robust z-score: 0.37
- nuclear/cytoplasmic p65 ratio, rep 1: 1.57
- nuclear/cytoplasmic p65 ratio, rep 2: 1.34
- low cell count flag: enough cells to score

Prdx1
- p65 translocation robust z-score: 0.12
- nuclear/cytoplasmic p65 ratio, rep 1: 1.53
- nuclear/cytoplasmic p65 ratio, rep 2: 1.41
- low cell count flag: enough cells to score
